Results are given in words; binding and its absence hold for the method and conditions named. In cells and extracts the contact can be indirect. Some binding calls cover weakened binding; strength is not graded here. For some assays here: Where a sequence is shown, tags or fusion partners need not be part of it.
Columns and labels:
FLAG-tagged MDA5 (human) = biological target: T1, FLAG-tagged MDA5 (human) (UniProt Q9BYX4); experiment: co-IP; extracts of HEK293T transfected with flag-tagged MDA5, untreated or treated with micrococcal nuclease (100 units/mL, 30 min, 37°C) before anti-FLAG immunoprecipitation; blot for PKR
T1 sequence: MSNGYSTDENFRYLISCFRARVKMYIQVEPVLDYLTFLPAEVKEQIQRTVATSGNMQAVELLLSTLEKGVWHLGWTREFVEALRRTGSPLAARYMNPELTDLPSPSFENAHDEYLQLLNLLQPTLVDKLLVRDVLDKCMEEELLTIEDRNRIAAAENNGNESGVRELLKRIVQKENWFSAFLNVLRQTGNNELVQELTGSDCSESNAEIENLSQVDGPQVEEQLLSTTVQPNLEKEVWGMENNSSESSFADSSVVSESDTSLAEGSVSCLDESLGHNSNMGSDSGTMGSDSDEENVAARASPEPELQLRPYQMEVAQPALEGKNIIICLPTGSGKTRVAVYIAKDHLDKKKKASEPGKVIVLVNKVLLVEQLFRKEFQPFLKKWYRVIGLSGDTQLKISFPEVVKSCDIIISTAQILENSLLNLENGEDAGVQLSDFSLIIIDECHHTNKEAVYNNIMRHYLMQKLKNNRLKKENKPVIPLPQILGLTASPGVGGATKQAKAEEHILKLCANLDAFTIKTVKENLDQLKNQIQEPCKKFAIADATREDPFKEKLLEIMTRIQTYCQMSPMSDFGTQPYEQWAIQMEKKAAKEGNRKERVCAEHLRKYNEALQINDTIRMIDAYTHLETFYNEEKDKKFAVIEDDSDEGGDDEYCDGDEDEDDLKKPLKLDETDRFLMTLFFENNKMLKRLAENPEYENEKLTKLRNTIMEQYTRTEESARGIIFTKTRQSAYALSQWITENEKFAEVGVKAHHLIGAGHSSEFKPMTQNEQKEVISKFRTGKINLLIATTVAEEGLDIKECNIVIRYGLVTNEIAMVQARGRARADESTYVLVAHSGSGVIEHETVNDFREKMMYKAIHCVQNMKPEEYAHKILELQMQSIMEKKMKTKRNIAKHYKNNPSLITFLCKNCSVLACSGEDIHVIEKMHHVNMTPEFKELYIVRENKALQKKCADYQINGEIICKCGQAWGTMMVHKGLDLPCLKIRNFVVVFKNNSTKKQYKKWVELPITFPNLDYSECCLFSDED

Chains of the proteins cited; added tags and fusions are not shown.
UniProt P19525: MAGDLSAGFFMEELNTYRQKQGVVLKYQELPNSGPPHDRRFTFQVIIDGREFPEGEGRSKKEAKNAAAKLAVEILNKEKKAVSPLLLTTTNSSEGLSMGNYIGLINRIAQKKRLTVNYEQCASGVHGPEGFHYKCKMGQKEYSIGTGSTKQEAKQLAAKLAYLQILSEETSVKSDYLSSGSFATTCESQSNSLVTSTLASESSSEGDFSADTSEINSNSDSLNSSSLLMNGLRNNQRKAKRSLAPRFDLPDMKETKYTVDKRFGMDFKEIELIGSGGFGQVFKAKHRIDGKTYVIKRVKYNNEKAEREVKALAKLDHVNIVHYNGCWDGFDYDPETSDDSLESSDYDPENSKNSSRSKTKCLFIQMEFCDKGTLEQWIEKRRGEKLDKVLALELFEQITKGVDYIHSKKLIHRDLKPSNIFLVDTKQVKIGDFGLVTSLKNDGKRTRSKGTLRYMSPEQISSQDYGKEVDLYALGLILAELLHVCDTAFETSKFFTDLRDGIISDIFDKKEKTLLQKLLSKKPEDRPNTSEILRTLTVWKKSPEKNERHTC
UniProt Q16539: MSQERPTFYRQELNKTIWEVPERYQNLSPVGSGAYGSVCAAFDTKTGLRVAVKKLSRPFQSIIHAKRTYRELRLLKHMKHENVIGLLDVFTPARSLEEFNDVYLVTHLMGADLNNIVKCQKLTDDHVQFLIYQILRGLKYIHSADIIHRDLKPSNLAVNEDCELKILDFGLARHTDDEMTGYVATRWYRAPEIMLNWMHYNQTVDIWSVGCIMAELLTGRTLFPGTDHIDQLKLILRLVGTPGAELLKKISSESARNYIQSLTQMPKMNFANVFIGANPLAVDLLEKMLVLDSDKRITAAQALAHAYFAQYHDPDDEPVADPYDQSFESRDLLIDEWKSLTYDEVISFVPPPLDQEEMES

[1] = biological target: protein kinase R (PKR), endogenous (human (endogenous in HEK293T and A549)) (UniProt P19525)

Row | binding (FLAG-tagged MDA5 (human)) | binding [1] | Substance
1 | binds | – | protein kinase R (PKR), endogenous (from UniProt P19525 1-551) (enzyme)
2 | – | no binding | p38 MAPK, endogenous (from UniProt Q16539 1-360) (enzyme)

— PMC4777437
